The text below walks through data of paper PMC10187114.

Sequences of proteins named here, by UniProt entry; tags and fusion partners are left off. Residues count along the entry.
UniProt Q8N668: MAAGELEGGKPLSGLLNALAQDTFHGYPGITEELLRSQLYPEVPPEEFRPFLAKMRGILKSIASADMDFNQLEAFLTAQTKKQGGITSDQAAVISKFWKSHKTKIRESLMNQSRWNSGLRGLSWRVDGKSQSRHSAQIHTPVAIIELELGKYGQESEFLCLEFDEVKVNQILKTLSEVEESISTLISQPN
UniProt Q86X83: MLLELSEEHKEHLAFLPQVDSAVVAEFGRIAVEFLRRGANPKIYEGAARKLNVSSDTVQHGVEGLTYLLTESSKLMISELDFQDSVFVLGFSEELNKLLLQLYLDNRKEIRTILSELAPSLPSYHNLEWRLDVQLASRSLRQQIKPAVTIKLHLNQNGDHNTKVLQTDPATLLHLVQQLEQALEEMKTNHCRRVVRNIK
UniProt Q9Y6G5, residues 12-202: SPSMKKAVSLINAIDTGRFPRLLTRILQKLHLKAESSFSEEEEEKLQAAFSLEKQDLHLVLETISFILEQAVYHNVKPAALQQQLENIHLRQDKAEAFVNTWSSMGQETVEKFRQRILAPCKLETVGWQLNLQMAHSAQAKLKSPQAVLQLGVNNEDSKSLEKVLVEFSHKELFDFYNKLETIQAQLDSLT
UniProt Q7Z4G1: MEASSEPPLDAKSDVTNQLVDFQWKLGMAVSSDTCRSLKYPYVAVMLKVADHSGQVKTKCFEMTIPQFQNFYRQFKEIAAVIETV
UniProt Q9NX08: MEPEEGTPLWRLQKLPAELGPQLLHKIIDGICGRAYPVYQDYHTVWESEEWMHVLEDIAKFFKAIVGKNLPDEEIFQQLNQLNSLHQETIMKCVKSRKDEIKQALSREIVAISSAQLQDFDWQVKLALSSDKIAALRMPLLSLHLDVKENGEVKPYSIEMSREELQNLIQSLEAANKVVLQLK
UniProt Q86VX2: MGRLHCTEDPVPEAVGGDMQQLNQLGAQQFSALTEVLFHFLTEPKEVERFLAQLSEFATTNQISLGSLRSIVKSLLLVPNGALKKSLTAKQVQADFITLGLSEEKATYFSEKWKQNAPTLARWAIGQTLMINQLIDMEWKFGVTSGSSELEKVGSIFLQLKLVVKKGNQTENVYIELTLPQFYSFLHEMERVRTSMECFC
UniProt Q9H0A8: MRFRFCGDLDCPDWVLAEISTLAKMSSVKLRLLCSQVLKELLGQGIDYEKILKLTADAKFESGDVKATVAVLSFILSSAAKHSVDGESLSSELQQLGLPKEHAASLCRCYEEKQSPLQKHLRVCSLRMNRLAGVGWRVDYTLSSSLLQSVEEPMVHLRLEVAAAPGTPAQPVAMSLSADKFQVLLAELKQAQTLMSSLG

Targets include COMMD1-His (human) (UniProt Q8N668); COMMD2-His (human) (UniProt Q86X83); COMMD10-His (human) (UniProt Q9Y6G5).
Holding throughout (test): affinity purification with mass spectrometry; ten human COMMD proteins co-expressed in E. coli, one His-tagged; Talon, gel filtration, anion exchange, peptide mass spectrometry
For orientation: In gel filtration, larger molecules generally elute earlier.

No constants are given. Whether binding was seen depends on the method and setting. Binding seen in cells or lysates may run through a third protein. These calls come from enrichment with a bait or labelling near it, and not all partners need be listed.

Consider “COMMD6 (E. coli) (from UniProt Q7Z4G1 1-85)”, for which the binding entry with COMMD1-His (human) is given as “binds”.

For the substance “COMMD8 (E. coli) (from UniProt Q9NX08 1-183)”, the binding result with COMMD1-His (human) and with COMMD2-His (human) was “binds” throughout.

In the case of “COMMD7 (E. coli) (from UniProt Q86VX2 1-200)”, the binding entry with COMMD10-His (human) is on record as “binds”.

Turning to “COMMD4 (E. coli) (from UniProt Q9H0A8 1-199)”, the binding result in the experiment with COMMD1-His (human) and with COMMD2-His (human) was “binds” in each case.
